Here are results for 21 compounds from PubChem BioAssay AID270 (DTP/NCI, 2004).

The test system of the assay is BDF1 mice, s.c. Lewis lung carcinoma, T/C %. Kind of assay: NCI In Vivo Anticancer Drug Screen. Data for tumor model Lewis Lung Carcinoma (subcutaneous) in B6D2F1 (BDF1) mice. An outline of the steps: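 Readout: survival or tumor size, expressed as treated (T) over vehicle control (C). Transplantable tumor implanted in mice; compound given to the treated group.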
Setting [1] is: T/C endpoint: median survival time, dose: 12.5 mg/kg/injection, schedule: Q01DX009 (ip), vehicle: Klucel (hydroxypropylcellulose) (HPC), higher T/C = longer survival.
The mark [2] stands for this setting: T/C endpoint: median survival time, dose: 25.0 mg/kg/injection, schedule: Q01DX009 (ip), vehicle: Klucel (hydroxypropylcellulose) (HPC), higher T/C = longer survival.
The mark [3] stands for this setting: T/C endpoint: median survival time, dose: 6.25 mg/kg/injection, schedule: Q01DX009 (ip), vehicle: saline, higher T/C = longer survival.
The mark [4] stands for this setting: T/C endpoint: median survival time, dose: 12.5 mg/kg/injection, schedule: Q01DX009 (ip), vehicle: saline, higher T/C = longer survival.
Setting [5] is: T/C endpoint: mean tumor weight, dose: 50.0 mg/kg/injection, schedule: Q01DX011 (ip), vehicle: carboxymethylcellulose (CMC), higher T/C = larger tumour.
Setting [6] is: T/C endpoint: mean tumor weight, dose: 100.0 mg/kg/injection, schedule: Q01DX011 (ip), vehicle: carboxymethylcellulose (CMC), higher T/C = larger tumour.
[7] abbreviates: T/C endpoint: median survival time, dose: 20.0 mg/kg/injection, schedule: Q04DX004 (ip), vehicle: gum acacia, higher T/C = longer survival.
[8] abbreviates: T/C endpoint: mean tumor weight, dose: 1000.0 mg/kg/injection, schedule: Q01DX011 (ip), vehicle: other, higher T/C = larger tumour.

Molecules are shown by their SMILES. The list is a part of this screen's results and no random one: it is rich in T/C values a quarter to a half above the control, in often repeated tests (any T/C) and in doses without a T/C. Other doses and runs of a compound stand elsewhere. T/C: endpoint of the treated group in % of that of the vehicle group. Schedules are NCI's codes, taken here to give the interval after Q, in days (D) or hours (H), and the number of doses after X. Some T/C values carry the count of animals alive at the toxicity check (mostly the fifth day); without a count, all were alive then. Some entries hold several experiments; the values are given in rising order. Some doses have a count of surviving animals in place of a T/C: the source holds a T/C of zero for them, seemingly a mark for toxic or unscored doses. Some survivor counts are full or nearly so, which does not show that the dose was tolerated: the source hardly ever lists a survival T/C far under the control, and the zero likely stands for such cases as well. Counts of survivors are from the toxicity check (mostly the fifth day) where no day follows; animals may have died later. Where survival is the endpoint, this PubChem deposit counts one and a half times the control or more as active, and values a quarter to a half above the control carry no call in these data; other NCI protocols may use other cut-offs.

On to `CO[C@@]12[C@H](COC(N)=O)C3=C(C(=O)C(C)=C(N)C3=O)N1C[C@@H]1N[C@@H]12`, for which the survivor count runs as follows: (T/C endpoint: median survival time, dose: 1.0 mg/kg/injection, schedule: Q01DX009 (ip), vehicle: Klucel (hydroxypropylcellulose) (HPC), higher T/C = longer survival) 6 of 10; (T/C endpoint: median survival time, dose: 2.0 mg/kg/injection, schedule: Q01DX009 (ip), vehicle: Klucel (hydroxypropylcellulose) (HPC), higher T/C = longer survival) 9 of 10; (T/C endpoint: median survival time, dose: 2.0 mg/kg/injection, schedule: Q01DX009 (ip), vehicle: saline, higher T/C = longer survival) 10 of 10; (T/C endpoint: median survival time, dose: 4.0 mg/kg/injection, schedule: Q01DX009 (ip), vehicle: Klucel (hydroxypropylcellulose) (HPC), higher T/C = longer survival) 9 of 10; (T/C endpoint: median survival time, dose: 4.0 mg/kg/injection, schedule: Q01DX009 (ip), vehicle: saline, higher T/C = longer survival) 10 of 10.
Turning to `FCCNC1CCCCC1`, the T/C (T/C endpoint: mean tumor weight, dose: 3.0 mg/kg/injection, schedule: Q01DX011 (ip), vehicle: carboxymethylcellulose (CMC), evaluated on day 12, higher T/C = larger tumour) was 126 % of control.
`C=C1C(=O)OC2C3OC(C)(CCC(O)C3COC(C)=O)CC(OC(=O)/C(=C/C)COC(C)=O)C12` (stereo not given): the T/C under setting [1] is 145 % of control and the T/C under setting [2] is 135 % of control [9 of 10 alive].
Regarding `ClCCn1cnc2c(SCc3ccccc3Cl)ncnc21`, the survivor count (T/C endpoint: mean tumor weight, dose: 480.0 mg/kg/injection, schedule: Q01DX011 (ip), vehicle: other, higher T/C = larger tumour) is given as 0 of 6.
Take `O=P(N1CCOCC1)(N1CC1)N1CC1`: the survivor count was 10 of 10 under setting [3]; 8 of 10 and 10 of 10 under setting [4]; 10 of 10 (T/C endpoint: median survival time, dose: 25.0 mg/kg/injection, schedule: Q01DX009 (ip), vehicle: saline, higher T/C = longer survival); 3 of 10, 8 of 10, 10 of 10 (T/C endpoint: median survival time, dose: 50.0 mg/kg/injection, schedule: Q01DX009 (ip), vehicle: saline, higher T/C = longer survival). Moreover, the T/C under setting [4] was 141 % of control.
Take `CCOC(=O)C(Br)CC` (stereo not given): the survivor count runs as follows: (T/C endpoint: mean tumor weight, dose: 222.0 mg/kg/injection, schedule: Q01DX011 (ip), vehicle: other, higher T/C = larger tumour) 2 of 6; (T/C endpoint: mean tumor weight, dose: 333.0 mg/kg/injection, schedule: Q01DX011 (ip), vehicle: other, higher T/C = larger tumour) 0 of 6; (T/C endpoint: mean tumor weight, dose: 500.0 mg/kg/injection, schedule: Q01DX011 (ip), vehicle: other, higher T/C = larger tumour) 0 of 6.
`CC(NC(=O)C1(N)CCCC1)C(=O)O` (stereo not given): the T/C (T/C endpoint: mean tumor weight, dose: 12.0 mg/kg/injection, schedule: Q01DX011 (ip), vehicle: carboxymethylcellulose (CMC), evaluated on day 12, higher T/C = larger tumour) was 130 % of control. The survivor count runs as follows: (T/C endpoint: mean tumor weight, dose: 25.0 mg/kg/injection, schedule: Q01DX011 (ip), vehicle: carboxymethylcellulose (CMC), higher T/C = larger tumour) 3 of 6; under setting [5], 3 of 6; under setting [6], 1 of 6.
Consider `CNC1=C(N2CC2)C(=O)C(NC)=C(N2CC2)C1=O`, for which the T/C (T/C endpoint: median survival time, dose: 0.05 mg/kg/injection, schedule: Q01DX009 (ip), vehicle: saline, higher T/C = longer survival) was 132 % of control.
In the case of `O=C(O)Cc1ccc(C2CCCCC2)cc1`, the survivor count (T/C endpoint: mean tumor weight, dose: 500.0 mg/kg/injection, schedule: Q01DX011 (ip), vehicle: carboxymethylcellulose (CMC), higher T/C = larger tumour) is listed as 2 of 6.
For `CNCc1ccccc1`, the T/C (T/C endpoint: mean tumor weight, dose: 50.0 mg/kg/injection, schedule: Q01DX011 (ip), vehicle: carboxymethylcellulose (CMC), evaluated on day 12, higher T/C = larger tumour) was 137 % of control. For the same compound, the survivor count is, setting by setting: under setting [6], 3 of 6; (T/C endpoint: mean tumor weight, dose: 200.0 mg/kg/injection, schedule: Q01DX011 (ip), vehicle: carboxymethylcellulose (CMC), higher T/C = larger tumour) 0 of 6 and 1 of 6.
Consider `COC(=O)[C@@]12OC[C@]34[C@H]([C@@H](O)[C@@H]1O)[C@@]1(C)CC(=O)C(O)=C(C)[C@@H]1C[C@H]3OC(=O)[C@H](OC(=O)/C=C(\C)C(C)C)[C@@H]24`, for which the survivor count (T/C endpoint: median survival time, dose: 4.0 mg/kg/injection, schedule: Q01DX009 (ip), vehicle: other, higher T/C = longer survival) is given as 2 of 10.
`O=NN(CCCl)C(=O)N[C@H]1CCCC[C@@H]1Cl`: the T/C (T/C endpoint: median survival time, dose: 4.5 mg/kg/injection, schedule: Q01DX001 (ip), vehicle: Klucel (hydroxypropylcellulose) (HPC), higher T/C = longer survival) is 128 % of control; the T/C under setting [7] was 148 % of control; the T/C (T/C endpoint: median survival time, dose: 25.0 mg/kg/injection, schedule: Q04DX004 (ip), vehicle: gum acacia, higher T/C = longer survival) is 133 % of control; the T/C (T/C endpoint: median survival time, dose: 36.0 mg/kg/injection, schedule: Q01DX001 (ip), vehicle: Klucel (hydroxypropylcellulose) (HPC), higher T/C = longer survival) is 126 % of control; the T/C (T/C endpoint: median survival time, dose: 38.0 mg/kg/injection, schedule: Q01DX001 (ip), vehicle: gum acacia, higher T/C = longer survival) is 138 % of control; the T/C (T/C endpoint: median survival time, dose: 45.0 mg/kg/injection, schedule: Q07DX002 (ip), vehicle: gum acacia, higher T/C = longer survival) is 142 % of control. Further, the T/C (T/C endpoint: median survival time, dose: 57.0 mg/kg/injection, schedule: Q01DX001 (ip), vehicle: gum acacia, higher T/C = longer survival) was 135 % of control. Moreover, the survivor count under setting [7] is on record as 10 of 10 on day 12.
Turning to `Cn1cnc([N+](=O)[O-])c1Sc1nc(N)nc2c1ncn2C1OC(CO)C(O)C1O` (stereo not given), the survivor count is given as 2 of 6 (T/C endpoint: mean tumor weight, dose: 24.0 mg/kg/injection, schedule: Q01DX011 (ip), vehicle: other, higher T/C = larger tumour) and 3 of 6 (T/C endpoint: mean tumor weight, dose: 32.0 mg/kg/injection, schedule: Q01DX011 (ip), vehicle: other, higher T/C = larger tumour).
On to `CC(=O)CC(=O)Nc1ccc(Cl)cc1`, for which the T/C (T/C endpoint: mean tumor weight, dose: 74.0 mg/kg/injection, schedule: Q01DX011 (ip), vehicle: other, evaluated on day 12, higher T/C = larger tumour) is 130 % of control and the T/C (T/C endpoint: mean tumor weight, dose: 250.0 mg/kg/injection, schedule: Q01DX011 (ip), vehicle: other, evaluated on day 12, higher T/C = larger tumour) was 130 % of control. The survivor count under setting [8] is on record as 0 of 6.
On to `Nc1nc2c(ncn2C2OC(CO)C(O)C2N)c(=O)[nH]1` (stereo not given), for which the survivor count under setting [3] is 10 of 10.
Take `Cc1cc(C)nc(NS(=O)(=O)c2ccc(N=Nc3nc4[nH]c(N)nc(=S)c4[nH]3)cc2)n1`: the survivor count runs as follows: (T/C endpoint: median survival time, dose: 3.12 mg/kg/injection, schedule: Q01DX009 (ip), vehicle: Klucel (hydroxypropylcellulose) (HPC), higher T/C = longer survival) 10 of 10; (T/C endpoint: median survival time, dose: 6.25 mg/kg/injection, schedule: Q01DX009 (ip), vehicle: Klucel (hydroxypropylcellulose) (HPC), higher T/C = longer survival) 10 of 10; under setting [1], 10 of 10; under setting [2], 10 of 10; (T/C endpoint: median survival time, dose: 50.0 mg/kg/injection, schedule: Q01DX009 (ip), vehicle: Klucel (hydroxypropylcellulose) (HPC), higher T/C = longer survival) 10 of 10; (T/C endpoint: median survival time, dose: 100.0 mg/kg/injection, schedule: Q01DX009 (ip), vehicle: Klucel (hydroxypropylcellulose) (HPC), higher T/C = longer survival) 10 of 10. Further, for the setting “T/C endpoint: median survival time, dose: 200.0 mg/kg/injection, schedule: Q01DX009 (ip), vehicle: Klucel (hydroxypropylcellulose) (HPC), higher T/C = longer survival”, the survivor count is given as 8 of 10.
As for `C[C@@H]1CC[C@@]2(NC1)O[C@H]1C[C@H]3[C@@H]4CC=C5C[C@@H](O)CC[C@]5(C)[C@H]4CC[C@]3(C)[C@H]1[C@@H]2C`, the T/C is 23, 37, 44, 58 % of control [4 of 6 alive] (T/C endpoint: mean tumor weight, dose: 25.0 mg/kg/injection, schedule: Q01DX011 (ip), vehicle: carboxymethylcellulose (CMC), evaluated on day 12, higher T/C = larger tumour); 51 and 64 % of control [4 of 6 alive] (T/C endpoint: mean tumor weight, dose: 37.5 mg/kg/injection, schedule: Q01DX011 (ip), vehicle: carboxymethylcellulose (CMC), evaluated on day 12, higher T/C = larger tumour). In addition, the survivor count (T/C endpoint: mean tumor weight, dose: 37.5 mg/kg/injection, schedule: Q01DX011 (ip), vehicle: carboxymethylcellulose (CMC), higher T/C = larger tumour) is 1 of 7 and 3 of 6.
`O=NN(CCCl)C(=O)Nc1ncc([N+](=O)[O-])s1`: the survivor count (T/C endpoint: median survival time, dose: 230.0 mg/kg/injection, schedule: Q01DX001 (ip), vehicle: other, higher T/C = longer survival) is 1 of 8 on day 11.
Consider `CCCCCCCCCCCCCCCCCCOC(=O)CCSCCC(=O)OCCCCCCCCCCCCCCCCCC`, for which the survivor count under setting [8] is 0 of 6.
With `CC(=O)NCCSC(=O)C(=O)SCCNC(C)=O`, the survivor count (T/C endpoint: mean tumor weight, dose: 200.0 mg/kg/injection, schedule: Q01DX011 (ip), vehicle: saline, higher T/C = larger tumour) was 1 of 6.
Take `CC(=O)Nc1c(Cl)cc2c(c1Cl)Cc1cc([N+](=O)[O-])ccc1-2`: the survivor count (T/C endpoint: mean tumor weight, dose: 30.0 mg/kg/injection, schedule: Q01DX011 (ip), vehicle: carboxymethylcellulose (CMC), higher T/C = larger tumour) is 1 of 6; the survivor count under setting [5] is listed as 3 of 6; the survivor count (T/C endpoint: mean tumor weight, dose: 65.0 mg/kg/injection, schedule: Q01DX011 (ip), vehicle: carboxymethylcellulose (CMC), higher T/C = larger tumour) is 1 of 6; the survivor count (T/C endpoint: mean tumor weight, dose: 125.0 mg/kg/injection, schedule: Q01DX011 (ip), vehicle: carboxymethylcellulose (CMC), higher T/C = larger tumour) is listed as 2 of 6; the survivor count (T/C endpoint: mean tumor weight, dose: 190.0 mg/kg/injection, schedule: Q01DX011 (ip), vehicle: carboxymethylcellulose (CMC), higher T/C = larger tumour) is 2 of 6; the survivor count (T/C endpoint: mean tumor weight, dose: 250.0 mg/kg/injection, schedule: Q01DX011 (ip), vehicle: carboxymethylcellulose (CMC), higher T/C = larger tumour) is recorded as 1 of 6.
